This passage reports binding results from paper PMC8643696.

In this experiment the target is T1, AtCYP59 (PlCYP5 homolog of Arabidopsis thaliana), two-hybrid fusion (Arabidopsis thaliana) (UniProt Q6Q151).
T1 sequence: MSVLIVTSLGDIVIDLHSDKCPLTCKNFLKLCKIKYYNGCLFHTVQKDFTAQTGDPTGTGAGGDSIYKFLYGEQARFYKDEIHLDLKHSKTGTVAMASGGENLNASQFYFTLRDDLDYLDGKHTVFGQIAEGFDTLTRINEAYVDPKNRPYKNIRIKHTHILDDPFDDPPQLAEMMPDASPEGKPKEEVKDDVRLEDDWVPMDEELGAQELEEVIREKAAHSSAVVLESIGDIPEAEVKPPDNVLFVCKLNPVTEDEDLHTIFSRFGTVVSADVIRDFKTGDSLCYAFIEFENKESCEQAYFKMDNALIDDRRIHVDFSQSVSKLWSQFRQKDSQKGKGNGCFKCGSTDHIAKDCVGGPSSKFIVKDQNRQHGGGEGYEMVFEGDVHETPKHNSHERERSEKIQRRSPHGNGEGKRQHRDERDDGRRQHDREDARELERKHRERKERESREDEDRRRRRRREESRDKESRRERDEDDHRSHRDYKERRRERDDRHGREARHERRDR
Nature of the experiment: two-hybrid; pGBKT7 (BD) bait and pGADT7 (AD) prey co-transformed into yeast Y2H GOLD; spotted in 10-fold dilution on SD/-Trp-Leu and SD/-Trp-Leu-His-Ade with X-alpha-gal and AbA, 3 days at 30 C.

No constants are given. Whether binding was seen depends on the method and setting. A result given as binding can be weak or reduced; the word gives no strength. Tags and fused reporters may be left off the sequences shown.

For the substance “PlRPS15 (uS19) of Purpureocillium lilacinum, two-hybrid fusion”, the binding result is on record as “binds”.
